# Experimental data from paper PMC11658185, “Analysis of the quadruple lsu mutant reveals molecular determinants of the role of LSU proteins in sulfur assimilation in Arabidopsis” (The Plant Journal, 2024).
# By UniProt entry, the sequences of proteins in these tests, tags left out. Where a name states a change or a piece, a line headed by the entry shows the natural chain unless it says otherwise.
# UniProt Q43870: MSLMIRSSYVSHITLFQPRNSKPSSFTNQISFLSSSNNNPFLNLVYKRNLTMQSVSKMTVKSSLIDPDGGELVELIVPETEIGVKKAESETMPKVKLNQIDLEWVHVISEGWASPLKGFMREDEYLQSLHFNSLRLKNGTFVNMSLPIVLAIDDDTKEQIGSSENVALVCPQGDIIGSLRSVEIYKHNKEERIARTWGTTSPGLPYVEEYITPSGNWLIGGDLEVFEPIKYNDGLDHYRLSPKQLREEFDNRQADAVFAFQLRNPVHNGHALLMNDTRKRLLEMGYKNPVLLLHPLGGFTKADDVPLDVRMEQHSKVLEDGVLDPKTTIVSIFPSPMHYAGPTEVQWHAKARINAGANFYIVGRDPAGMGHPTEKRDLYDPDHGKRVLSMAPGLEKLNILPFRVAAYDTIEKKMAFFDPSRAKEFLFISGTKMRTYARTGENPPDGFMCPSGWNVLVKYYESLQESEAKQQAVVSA
# UniProt O23324: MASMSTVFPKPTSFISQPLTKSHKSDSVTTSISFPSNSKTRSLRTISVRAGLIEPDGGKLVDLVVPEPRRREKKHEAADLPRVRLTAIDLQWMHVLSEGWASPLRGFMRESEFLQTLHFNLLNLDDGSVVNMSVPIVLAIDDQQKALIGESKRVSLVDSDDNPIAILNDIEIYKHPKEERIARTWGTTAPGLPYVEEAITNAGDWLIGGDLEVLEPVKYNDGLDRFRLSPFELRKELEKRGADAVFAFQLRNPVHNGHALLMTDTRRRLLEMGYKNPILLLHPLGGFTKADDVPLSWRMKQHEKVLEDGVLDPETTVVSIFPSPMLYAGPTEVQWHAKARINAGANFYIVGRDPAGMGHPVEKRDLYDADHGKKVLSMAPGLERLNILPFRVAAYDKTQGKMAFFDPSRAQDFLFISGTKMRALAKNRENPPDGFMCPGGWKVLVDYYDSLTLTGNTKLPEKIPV
# UniProt Q9S7D8: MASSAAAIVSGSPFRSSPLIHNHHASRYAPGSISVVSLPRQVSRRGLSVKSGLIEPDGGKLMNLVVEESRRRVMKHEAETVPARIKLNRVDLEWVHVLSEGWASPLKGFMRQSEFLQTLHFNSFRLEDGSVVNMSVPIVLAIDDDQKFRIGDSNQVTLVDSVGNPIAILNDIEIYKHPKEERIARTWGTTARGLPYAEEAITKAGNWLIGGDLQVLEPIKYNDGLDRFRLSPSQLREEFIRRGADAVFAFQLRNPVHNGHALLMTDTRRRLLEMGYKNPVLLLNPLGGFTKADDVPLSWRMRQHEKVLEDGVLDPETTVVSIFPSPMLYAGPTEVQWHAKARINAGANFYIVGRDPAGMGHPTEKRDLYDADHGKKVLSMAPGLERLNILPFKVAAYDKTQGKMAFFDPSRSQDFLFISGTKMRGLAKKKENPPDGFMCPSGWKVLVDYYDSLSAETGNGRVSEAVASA
# UniProt Q9LZ66: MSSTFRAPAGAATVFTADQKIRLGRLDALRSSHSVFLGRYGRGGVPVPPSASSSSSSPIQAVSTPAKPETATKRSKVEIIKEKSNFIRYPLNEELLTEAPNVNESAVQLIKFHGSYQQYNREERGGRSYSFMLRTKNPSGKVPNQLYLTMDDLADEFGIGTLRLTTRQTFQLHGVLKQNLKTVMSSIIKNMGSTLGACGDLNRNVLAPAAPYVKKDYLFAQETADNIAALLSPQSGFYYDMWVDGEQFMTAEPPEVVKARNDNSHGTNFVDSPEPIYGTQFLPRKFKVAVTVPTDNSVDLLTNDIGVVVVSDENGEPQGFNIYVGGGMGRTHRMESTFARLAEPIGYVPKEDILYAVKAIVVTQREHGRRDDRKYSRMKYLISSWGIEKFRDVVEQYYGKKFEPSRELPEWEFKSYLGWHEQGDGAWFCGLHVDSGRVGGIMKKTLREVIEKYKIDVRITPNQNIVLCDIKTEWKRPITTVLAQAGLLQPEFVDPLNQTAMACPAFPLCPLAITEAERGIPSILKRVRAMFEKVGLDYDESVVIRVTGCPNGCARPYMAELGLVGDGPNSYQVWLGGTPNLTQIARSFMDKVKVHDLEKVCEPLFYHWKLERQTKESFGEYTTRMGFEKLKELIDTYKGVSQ
# Columns and labels:
# Assay in all cases: two-hybrid; yeast two-hybrid, ORFs in pDEST-GAD or pDEST-GBK (GAL4 AD and BD fusions); the panel of enzymes and LSU proteins tested in both orientations; growth on selection media, plates 3 days at 30°C
# [1] = molecular target: ATP sulfurylase isoform ATPS2 (A. thaliana) (UniProt Q43870)
# [2] = molecular target: ATP sulfurylase isoform ATPS3 (A. thaliana) (UniProt O23324)
# [3] = molecular target: ATP sulfurylase isoform ATPS4 (A. thaliana) (UniProt Q9S7D8)
# [4] = molecular target: SiR protein with the deletion of the region binding the [4Fe-4S] cluster (A. thaliana) (UniProt Q9LZ66)
binding [1],binding [2],binding [3],binding [4],Binder
no binding,binds,no binding,,"LSU3 (RESPONSE TO LOW SULFUR 3) (protein, UniProt Q9SCK2 1-97) MGKGGGYVTVAAEEVEELRRRNGELEREMEEMKKEMVQLWRRTVVAEEAEERLCSQLAELEVESLDQARDYHSRIVFLMDQISRLSSSSLEVVVTNS"
no binding,binds,no binding,no binding,"LSU1 (RESPONSE TO LOW SULFUR 1) (protein, UniProt Q9SCK1 1-94) MANRGGCVTVAAEEMDELRRRNIELSREVAEMKTEMIKLWQRTVVAEEAEEQLCSQLAELEVESLEQARDYHDRMLFLMDQISRLSSSSVVSSS"
no binding,binds,no binding,,"LSU4 (RESPONSE TO LOW SULFUR 4) (protein, UniProt Q8L8S2 1-92) MGKGGNYVMVAASEVEELRQKNGEMEKAVEEMRKEMLQLWRRTQVAEEAEEHLCSQLAELEAESLDQARDYHTRIIFLTNQLSRFSSDSASP"
no binding,binds,no binding,,"LSU2 (RESPONSE TO LOW SULFUR 2) (protein, UniProt Q9FIR9 1-94) MGKGGNYVTVAASEVDELRRKNGEMEKAVEEMKKEMLQLWRRTQVAEEAEERLCSQLAELEAESLDQARDYHSRIIFLMNELSRLSSDSASASP"

# No constants are given. Whether binding was seen depends on the method and setting. For some of these results: Binding calls can cover weak binding; strength is not graded here.
